Some results were stated once for a whole list of compounds, not compound by compound.
Tested on: H1299
Test: MTT assay, PhTERT-SEAP (H1299)
Type: cell-based, human
Details: for cell toxicity activity: high concentrations (100 μM, 10 μM)
Method: Further, cells were subjected to MTT assay to compare the relative toxicity or effect of each compound on cell proliferation and activity.
The above-described cells are cultured in a 96-well plate, to which was added with 25 μl MTT solution, and cultured in a 37° C. carbon dioxide incubator for 4 hours. Then, 100 μl Lysis buffer is added and incubated in a 37° C. carbon dioxide incubator overnight. An ELISA reader (Bio-Rad Model 450) is used to read optical density (O.D.) at 550 nm.

SMILES	cell survival rate (low concentration (1 μM), SEAP and MTT assays)	cell toxicity activity
O=C(CCl)Nc1ccc2c(c1NC(=O)CCl)C(=O)c1ccccc1C2=O [CC-01, 1,2-bis-(chloroacetamido)-anthraquinone]	lower than 50%	
O=C(CN1CCN(c2ccccc2)CC1)Nc1ccc2c(c1NC(=O)c1ccccc1)C(=O)c1ccccc1C2=O [CC-33, 1-(benzamido)-2-[2-(4-phenylpiperazino)acetylamino]-anthraquinone]		lower cell toxicity activity
O=C(CN1CCN(c2ccccc2F)CC1)Nc1ccc2c(c1NC(=O)c1ccccc1)C(=O)c1ccccc1C2=O [CC-34, 1-(benzamido)-2-[2-[4-(2-fluorophenyl)piperazino]acetylamino]-anthraquinone]		lower cell toxicity activity
Cc1ccc(C(=O)Nc2c(NC(=O)CN3CCC4(CC3)OCCO4)ccc3c2C(=O)c2ccccc2C3=O)cc1 [CC-40, 1-(4-methylbenzamido)-2-[2-(1,4-dioxa-8-azaspiro[4.5]dec-8-yl)acetylamino]-anthraquinone]		lower cell toxicity activity
Cc1ccc(C(=O)Nc2c(NC(=O)CN3CCN(c4ccccc4)CC3)ccc3c2C(=O)c2ccccc2C3=O)cc1 [CC-45, 1-(4-methylbenzamido)-2-[2-(4-phenylpiperazino)acetylamino]-anthraquinone]		lower cell toxicity activity
Cc1ccc(C(=O)Nc2c(NC(=O)CN3CCN(c4ccccc4F)CC3)ccc3c2C(=O)c2ccccc2C3=O)cc1 [CC-46, 1-(4-methylbenzamido)-2-[2-[4-(2-fluorophenyl)piperazino]acetylamino]-anthraquinone]		lower cell toxicity activity
Cc1ccc(C(=O)Nc2c(NC(=O)CN3CCN(c4ccccc4C#N)CC3)ccc3c2C(=O)c2ccccc2C3=O)cc1 [CC-47, 1-(4-methylbenzamido)-2-[2-[4-(2-cyanophenyl)piperazino]acetylamino]-anthraquinone]		lower cell toxicity activity
COc1ccccc1N1CCN(CC(=O)Nc2ccc3c(c2NC(=O)c2ccc(C)cc2)C(=O)c2ccccc2C3=O)CC1 [CC-48, 1-(4-methylbenzamido)-2-[2-[4-(2-methoxyphenyl)piperazino]acetylamino]-anthraquinone]		lower cell toxicity activity
Cc1ccc(C(=O)Nc2c(NC(=O)CN3CCN(c4ccccn4)CC3)ccc3c2C(=O)c2ccccc2C3=O)cc1 [CC-49, 1-(4-methylbenzamido)-2-[2-[4-(2-pyridyl)piperazino]acetylamino]-anthraquinone]		lower cell toxicity activity

— patent US8530465B2, “1, 2-disubstituted amido-anthraquinone derivatives, preparation method and application thereof” (National Defense Medical Center, priority 2010, dated 2013)
